Laboratory results from the supplement of paper PMC10849652.
This is one part of the list.

Chains of the proteins cited; added tags and fusions are not shown. Lines headed by an entry give the natural chain unless they say otherwise; changes in a name come on top.
UniProt P11142, whole entry, looked up: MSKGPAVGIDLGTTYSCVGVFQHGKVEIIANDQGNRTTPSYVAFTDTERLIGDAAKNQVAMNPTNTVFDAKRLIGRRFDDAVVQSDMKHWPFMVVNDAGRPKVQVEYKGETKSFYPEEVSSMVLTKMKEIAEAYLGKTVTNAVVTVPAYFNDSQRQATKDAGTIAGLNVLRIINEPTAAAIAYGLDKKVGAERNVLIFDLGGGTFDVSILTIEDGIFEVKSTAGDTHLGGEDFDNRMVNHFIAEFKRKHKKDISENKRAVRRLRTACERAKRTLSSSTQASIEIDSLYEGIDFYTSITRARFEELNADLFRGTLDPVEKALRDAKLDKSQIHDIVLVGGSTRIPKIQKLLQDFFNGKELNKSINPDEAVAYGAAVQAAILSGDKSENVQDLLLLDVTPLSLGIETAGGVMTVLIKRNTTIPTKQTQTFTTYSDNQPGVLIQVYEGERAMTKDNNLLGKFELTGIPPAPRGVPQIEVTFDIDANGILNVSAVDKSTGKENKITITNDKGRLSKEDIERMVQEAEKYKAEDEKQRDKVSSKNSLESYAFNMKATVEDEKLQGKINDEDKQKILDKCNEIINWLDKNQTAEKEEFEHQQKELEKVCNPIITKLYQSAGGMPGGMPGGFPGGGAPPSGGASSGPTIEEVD
UniProt Q9Y6K9, whole entry, looked up: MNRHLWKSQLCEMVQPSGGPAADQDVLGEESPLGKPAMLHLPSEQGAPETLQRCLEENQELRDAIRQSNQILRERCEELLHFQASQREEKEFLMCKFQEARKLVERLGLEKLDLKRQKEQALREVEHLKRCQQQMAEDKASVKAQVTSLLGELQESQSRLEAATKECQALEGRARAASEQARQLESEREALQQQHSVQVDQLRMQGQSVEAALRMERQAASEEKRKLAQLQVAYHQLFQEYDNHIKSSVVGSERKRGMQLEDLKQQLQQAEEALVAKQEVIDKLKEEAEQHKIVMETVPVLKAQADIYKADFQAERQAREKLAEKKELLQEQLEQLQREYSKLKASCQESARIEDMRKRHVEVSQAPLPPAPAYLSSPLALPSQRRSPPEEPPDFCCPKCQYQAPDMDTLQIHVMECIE
UniProt Q01628, whole entry, looked up: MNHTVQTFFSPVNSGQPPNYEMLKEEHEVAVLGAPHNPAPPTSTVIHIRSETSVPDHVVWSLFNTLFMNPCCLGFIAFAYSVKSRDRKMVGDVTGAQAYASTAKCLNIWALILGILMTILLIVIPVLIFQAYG
UniProt P15260: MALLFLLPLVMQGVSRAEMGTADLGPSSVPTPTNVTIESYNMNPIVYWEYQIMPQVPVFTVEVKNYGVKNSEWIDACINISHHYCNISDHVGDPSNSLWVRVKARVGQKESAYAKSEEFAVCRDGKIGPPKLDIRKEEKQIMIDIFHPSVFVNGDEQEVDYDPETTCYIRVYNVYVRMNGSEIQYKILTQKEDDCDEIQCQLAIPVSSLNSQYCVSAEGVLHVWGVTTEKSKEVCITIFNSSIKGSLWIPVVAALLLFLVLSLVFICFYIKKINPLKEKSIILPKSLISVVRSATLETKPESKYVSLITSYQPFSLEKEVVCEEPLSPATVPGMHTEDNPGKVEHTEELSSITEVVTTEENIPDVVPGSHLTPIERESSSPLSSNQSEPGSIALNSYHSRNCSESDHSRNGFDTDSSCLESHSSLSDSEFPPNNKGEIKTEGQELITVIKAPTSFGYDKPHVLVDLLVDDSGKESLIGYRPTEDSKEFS
UniProt O15357: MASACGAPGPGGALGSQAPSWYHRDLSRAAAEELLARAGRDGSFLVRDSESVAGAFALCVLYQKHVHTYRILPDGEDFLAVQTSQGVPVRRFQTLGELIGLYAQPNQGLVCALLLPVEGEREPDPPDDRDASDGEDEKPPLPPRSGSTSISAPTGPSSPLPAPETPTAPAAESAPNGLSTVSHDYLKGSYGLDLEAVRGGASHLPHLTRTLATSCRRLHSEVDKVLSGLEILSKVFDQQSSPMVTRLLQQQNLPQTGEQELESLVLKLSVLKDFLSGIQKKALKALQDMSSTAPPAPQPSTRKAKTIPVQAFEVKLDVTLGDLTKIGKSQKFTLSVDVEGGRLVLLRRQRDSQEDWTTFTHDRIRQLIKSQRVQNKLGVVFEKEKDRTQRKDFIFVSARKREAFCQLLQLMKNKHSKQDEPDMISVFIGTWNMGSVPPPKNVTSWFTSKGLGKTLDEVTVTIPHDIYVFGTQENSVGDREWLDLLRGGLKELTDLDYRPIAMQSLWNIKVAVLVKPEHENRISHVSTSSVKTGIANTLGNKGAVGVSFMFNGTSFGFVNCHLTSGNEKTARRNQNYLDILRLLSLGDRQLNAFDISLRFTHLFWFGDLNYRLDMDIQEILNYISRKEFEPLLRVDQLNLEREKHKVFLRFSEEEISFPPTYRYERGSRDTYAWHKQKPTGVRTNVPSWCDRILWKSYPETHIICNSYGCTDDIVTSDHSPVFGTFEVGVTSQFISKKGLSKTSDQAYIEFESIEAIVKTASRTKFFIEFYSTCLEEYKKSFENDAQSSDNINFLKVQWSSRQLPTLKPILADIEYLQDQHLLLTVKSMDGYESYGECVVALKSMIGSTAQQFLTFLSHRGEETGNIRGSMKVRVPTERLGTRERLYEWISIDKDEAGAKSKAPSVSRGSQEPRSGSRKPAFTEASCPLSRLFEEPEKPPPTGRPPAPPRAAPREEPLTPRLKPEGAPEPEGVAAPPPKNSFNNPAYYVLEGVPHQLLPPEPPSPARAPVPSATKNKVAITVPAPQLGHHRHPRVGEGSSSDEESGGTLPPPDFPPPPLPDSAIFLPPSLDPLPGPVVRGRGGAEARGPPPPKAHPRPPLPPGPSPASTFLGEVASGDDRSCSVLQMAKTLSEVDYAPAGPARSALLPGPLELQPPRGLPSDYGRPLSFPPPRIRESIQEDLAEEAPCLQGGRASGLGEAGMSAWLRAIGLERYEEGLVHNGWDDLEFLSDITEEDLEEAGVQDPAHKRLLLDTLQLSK
UniProt Q9H2S9: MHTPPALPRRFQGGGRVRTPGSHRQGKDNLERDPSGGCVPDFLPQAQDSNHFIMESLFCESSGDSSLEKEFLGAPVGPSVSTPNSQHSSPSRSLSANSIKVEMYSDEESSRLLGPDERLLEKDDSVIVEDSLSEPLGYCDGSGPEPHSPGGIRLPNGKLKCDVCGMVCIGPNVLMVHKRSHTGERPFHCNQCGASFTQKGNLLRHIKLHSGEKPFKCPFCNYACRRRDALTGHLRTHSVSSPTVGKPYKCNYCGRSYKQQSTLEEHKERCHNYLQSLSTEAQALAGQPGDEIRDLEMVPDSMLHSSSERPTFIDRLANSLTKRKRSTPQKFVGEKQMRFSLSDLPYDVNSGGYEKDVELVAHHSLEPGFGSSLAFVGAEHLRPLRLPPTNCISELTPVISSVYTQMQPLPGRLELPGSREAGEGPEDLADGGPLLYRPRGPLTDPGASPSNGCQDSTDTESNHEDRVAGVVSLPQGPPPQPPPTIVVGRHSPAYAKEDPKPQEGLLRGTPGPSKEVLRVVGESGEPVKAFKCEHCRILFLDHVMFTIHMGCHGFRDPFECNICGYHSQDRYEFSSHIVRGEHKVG
UniProt Q9Y4L1: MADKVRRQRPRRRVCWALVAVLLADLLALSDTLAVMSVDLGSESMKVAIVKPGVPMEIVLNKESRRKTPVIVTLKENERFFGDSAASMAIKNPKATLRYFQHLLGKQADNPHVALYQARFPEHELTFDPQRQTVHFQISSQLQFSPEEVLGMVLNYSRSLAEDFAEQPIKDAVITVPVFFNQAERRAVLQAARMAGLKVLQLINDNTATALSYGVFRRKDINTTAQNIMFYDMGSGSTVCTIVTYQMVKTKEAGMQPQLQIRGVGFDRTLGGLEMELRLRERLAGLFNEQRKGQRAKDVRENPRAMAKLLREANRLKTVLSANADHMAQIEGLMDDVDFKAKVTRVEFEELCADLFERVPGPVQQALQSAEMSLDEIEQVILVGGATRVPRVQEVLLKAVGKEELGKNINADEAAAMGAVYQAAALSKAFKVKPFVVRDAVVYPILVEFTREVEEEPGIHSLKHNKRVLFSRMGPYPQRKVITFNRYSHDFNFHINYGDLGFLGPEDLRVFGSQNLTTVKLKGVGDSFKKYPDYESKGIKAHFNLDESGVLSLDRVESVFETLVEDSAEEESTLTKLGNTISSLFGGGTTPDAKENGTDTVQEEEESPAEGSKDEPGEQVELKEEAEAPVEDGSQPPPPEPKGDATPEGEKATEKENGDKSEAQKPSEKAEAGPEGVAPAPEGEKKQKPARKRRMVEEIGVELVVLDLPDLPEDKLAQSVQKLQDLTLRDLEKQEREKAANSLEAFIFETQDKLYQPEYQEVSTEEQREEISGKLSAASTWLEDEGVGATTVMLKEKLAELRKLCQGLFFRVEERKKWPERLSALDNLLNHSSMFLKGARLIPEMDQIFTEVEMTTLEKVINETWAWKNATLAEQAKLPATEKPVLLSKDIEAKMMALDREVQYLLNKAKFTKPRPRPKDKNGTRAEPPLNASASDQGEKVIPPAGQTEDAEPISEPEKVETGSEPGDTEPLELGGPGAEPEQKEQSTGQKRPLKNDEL

Tests used:
Assay in all cases: log2 fold change, soluble protein after heating vs DMSO (PISA); higher = thermal stabilisation; K562 lysate, 10 uM; active = over 0.2 and 3.5 SD of the protein, either way, in both replicates (recomputed)
ibrutinib = compound: C=CC(=O)N1CCC[C@@H](n2nc(-c3ccc(Oc4ccccc4)cc3)c3c(N)ncnc32)C1 [ibrutinib]
Summary of the method: (§1)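 Log-two fold change in thermal stability relative to solvent controls is reported from duplicates. For each sample, crude K562 extract from dounce-homogenised pellets in PBS pH 7.4 with 1 mM MgCl2, at 1 mg/mL protein, was treated with 10 μM compound for 30 min. Aliquots heated for 3 min across 48°C-58°C were pooled, brought to 0.5% NP-40 at 4°C and cleared at 21,000xg for 90 min. The supernatant was quantified by TMTpro 16plex LC-MS/MS with channel sums equalised.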

[1] = compound: CC(=O)c1cnc2ccc(-c3cc(Cl)c(O)c(Cl)c3)nc2c1N[C@H]1CC[C@H](CN(C)C)CC1
Summary of the method: as §1

ralimetinib = compound: CC(C)(C)Cn1c(N)nc2ccc(-c3[nH]c(C(C)(C)C)nc3-c3ccc(F)cc3)nc21 [ralimetinib]
Summary of the method: as §1

[2] = compound: CC(C)(O)CC(=O)NCCn1ccc2ncnc(Nc3ccc(Oc4cccc(C(F)(F)F)c4)c(Cl)c3)c21
Summary of the method: as §1

[3] = compound: CC(C)C1=C2N=C(C=C(N2N=C1)NCC3=CC=CC=C3)NCCCCCCN
Summary of the method: as §1

[4] = compound: CC1=C(C(CC(=O)N1)C2=CC=C(C=C2)C(F)(F)F)C(=O)NC3=C(C=C4C(=C3)C=NN4)F
Summary of the method: as §1

[5] = compound: CC1=C(C2=C(C=C1)C(=O)C3=CC=CC=C3N2CCCN)C
Summary of the method: as §1

[6] = compound: CC1=C(C=C(C=C1)NC(=O)C2=CC(=CC=C2)C(C)(C)C#N)NC3=CC4=C(C=C3)N=CN(C4=O)C
Summary of the method: as §1

[7] = compound: CC1=C(C=C(C=C1)NC(=O)C2=CC(=CC=C2)N(C)C)NC(=O)C3=CC=C(C=C3)O
Summary of the method: as §1

[8] = compound: CC1=CC=C(C=C1)SC2=C3C=C(SC3=CN=C2)C(=O)N
Summary of the method: as §1

vemurafenib = compound: CCCS(=O)(=O)Nc1ccc(F)c(C(=O)c2c[nH]c3ncc(-c4ccc(Cl)cc4)cc23)c1F [vemurafenib]
Summary of the method: as §1

[9] = compound: CCCS(=O)(=O)Nc1ccc(F)c(C(=O)c2c[nH]c3ncc(Cl)cc23)c1F
Summary of the method: as §1

barasertib = compound: CCN(CCCOc1ccc2c(Nc3cc(CC(=O)Nc4cccc(F)c4)[nH]n3)ncnc2c1)CCOP(=O)(O)O [barasertib]
Summary of the method: as §1

[10] = compound: CC[C@@H]1C(=O)N(C)c2cnc(Nc3ccc(C(=O)NC4CCN(C)CC4)cc3OC)nc2N1C1CCCC1
Summary of the method: as §1

volasertib = compound: CC[C@@H]1C(=O)N(C)c2cnc(Nc3ccc(C(=O)N[C@H]4CC[C@H](N5CCN(CC6CC6)CC5)CC4)cc3OC)nc2N1C(C)C [volasertib]
Summary of the method: as §1

[11] = compound: CCn1c(C(=O)N(C2CC2)C2CC2)cc2c3c(ncn3C)c(Nc3cc(C)n(C)n3)nc21
Summary of the method: as §1

[12] = compound: CCn1cc(-c2ccnc3[nH]c(-c4cccc(CN(C)C)c4)cc23)c(-c2ccc(NC(=O)N(C)C)cc2)n1
Summary of the method: as §1

[13] = compound: CN1CCC(CNc2ccc3ncc(-c4cccc(OC(F)(F)F)c4)n3n2)CC1
Summary of the method: as §1

saracatinib = compound: CN1CCN(CCOc2cc(OC3CCOCC3)c3c(Nc4c(Cl)ccc5c4OCO5)ncnc3c2)CC1 [saracatinib]
Summary of the method: as §1

sotrastaurin = compound: CN1CCN(c2nc(C3=C(c4c[nH]c5ccccc45)C(=O)NC3=O)c3ccccc3n2)CC1 [sotrastaurin]
Summary of the method: as §1

Target	log2 fold change (ibrutinib)	log2 fold change [1]	log2 fold change (ralimetinib)	log2 fold change [2]	log2 fold change [3]	log2 fold change [4]	log2 fold change [5]	log2 fold change [6]	log2 fold change [7]	log2 fold change [8]	log2 fold change (vemurafenib)	log2 fold change [9]	log2 fold change (barasertib)	log2 fold change [10]	log2 fold change (volasertib)	log2 fold change [11]	log2 fold change [12]	log2 fold change [13]	log2 fold change (saracatinib)	log2 fold change (sotrastaurin)
HSPA8 (UniProt P11142)	inactive: -0.02	inactive: -0.002	inactive: -0.015	inactive: -0.003	inactive: 0.001	inactive: -0.022	inactive: 0.005	inactive: -0.013	inactive: -0.002	inactive: 0.009	inactive: -0.024	inactive: 0.003	inactive: -0.035	inactive: -0.031	inactive: -0.003	inactive: 0.002	inactive: -0.005	inactive: 0.014	inactive: -0.001	inactive: 0.004
IKBKG isoform 2 (UniProt Q9Y6K9)	inactive: 0.03	inactive: -0.011	inactive: 0.043	inactive: -0.016	inactive: -0.023	inactive: 0.004	inactive: -0.049	inactive: 0.002	inactive: 0.002	inactive: -0.019	inactive: 0.025	inactive: 0.003	inactive: -0.019	inactive: 0.003	inactive: 0.009	inactive: 0.019	inactive: 0.018	inactive: 0.063	inactive: 0.024	inactive: -0.039
IFI30 (UniProt P13284)	inactive: 0.01	inactive: -0.01	inactive: -0.046	inactive: -0.051	inactive: -0.047	inactive: 0.007	inactive: 0.041	inactive: 0.009	inactive: -0.002	inactive: -0.059	inactive: -0.066	inactive: -0.013	inactive: 0.199	inactive: 0.076	inactive: 0.001	inactive: -0.003	inactive: -0.23	inactive: 0.059	inactive: -0.013	inactive: 0.092
IFITM3 (UniProt Q01628)	inactive: -0.07	inactive: -0.042	inactive: 0.179	inactive: 0.078	inactive: 0.003	inactive: -0.173	inactive: -0.117	inactive: -0.133	inactive: -0.026	inactive: 0.129	inactive: -0.046	inactive: 0.079	inactive: 0.342	inactive: -0.06	inactive: -0.025	inactive: 0.026	inactive: -0.11	inactive: 0.112	inactive: -0.041	inactive: 0.052
IFNGR1 (UniProt P15260)	inactive: -0.033	inactive: -0.12	inactive: -0.018	inactive: -0.256	inactive: -0.014	inactive: 0.162	inactive: -0.077	inactive: 0.017	inactive: 0.073	inactive: -0.213	inactive: 0.182	inactive: -0.07	inactive: -0.051	inactive: 0.234	inactive: 0.08	inactive: -0.153	active: -0.641	inactive: 0.331	inactive: 0.032	inactive: -0.018
INPPL1 (UniProt O15357)	inactive: 0.012	inactive: 0.02	inactive: 0.049	inactive: -0.013	inactive: 0.004	inactive: 0.011	inactive: -0.005	inactive: -0.001	inactive: 0.034	inactive: 0.014	inactive: 0.023	inactive: 0.01	inactive: 0.028	inactive: -0.02	inactive: -0.047	inactive: 0.095	inactive: -0.017	inactive: -0.06	inactive: 0.005	inactive: 0.019
IKZF4 (UniProt Q9H2S9)	inactive: 0.081	inactive: 0.021	inactive: 0	inactive: -0.062		inactive: 0.039		inactive: -0.001	inactive: 0.052	inactive: -0.072		inactive: -0.042	inactive: 0.041	inactive: -0.186	inactive: -0.063	inactive: 0.088				inactive: 0.01
HYOU1 (UniProt Q9Y4L1)	inactive: 0.003	inactive: 0.007	inactive: -0.006	inactive: 0	inactive: -0.001	inactive: -0.006	inactive: 0.002	inactive: -0.009	inactive: -0.004	inactive: -0.003	inactive: 0.03	inactive: -0.014	inactive: -0.029	inactive: 0.016	inactive: 0.008	inactive: -0.006	inactive: 0.089	inactive: -0.008	inactive: -0.01	inactive: -0.005
